This note sets out measurements from publication PMC3834070.

Test [1] concerns the target polygalacturonase of Fusarium verticillioides (FvPG) strain 62264 (Fusarium verticillioides). The experiment in a line: SAXS; non-cross-linked PvPGIP2-FvPG solution; p(r) functions and Rg followed over time in steps of 20 hours; both purified.
In test [2] the target is Polygalacturonase 1 of Colletotrichum lupini (CluPG1) strain SHK78813 (Colletotrichum lupini). In words: cross-linking; 1% methanol-free formaldehyde, 50 mM NaOAc pH 4.6, 28°C, 16 h, molar ratio 1:1; analysed by SDS-PAGE; both purified.
Test [3] has the same target. The experiment in a line: SAXS; cross-linked CluPG1-PvPGIP2 sample concentrated to 22 μM, 25.0°C; ab initio (GA_STRUCT) and rigid body (SASREF) modelling; both purified.

Results are given in words; binding and its absence hold for the method and conditions named. For part of these data: A result given as binding can be weak or reduced; the word gives no strength.

B1: PG-inhibiting protein 2 of Phaseolus vulgaris pv Pinto (PvPGIP2) (protein, UniProt P58822 30-342)
chain: ELCNPQDKQALLQIKKDLGNPTTLSSWLPTTDCCNRTWLGVLCDTDTQTYRVNNLDLSGLNLPKPYPIPSSLANLPYLNFLYIGGINNLVGPIPPAIAKLTQLHYLYITHTNVSGAIPDFLSQIKTLVTLDFSYNALSGTLPPSISSLPNLVGITFDGNRISGAIPDSYGSFSKLFTSMTISRNRLTGKIPPTFANLNLAFVDLSRNMLEGDASVLFGSDKNTQKIHLAKNSLAFDLGKVGLSKNLNGLDLRNNRIYGTLPQGLTQLKFLHSLNVSFNNLCGEIPQGGNLQRFDVSAYANNKCLCGSPLPACT
Regarding B1, the binding entry in test [1] is “no binding”; in test [2] it was “binds”; in test [3], “binds”.
